In paper PMC6083090, “CNBP Homologues Gis2 and Znf9 Interact with a Putative G-Quadruplex-Forming 3′ Untranslated Region, Altering Polysome Association and Stress Tolerance in Cryptococcus neoformans”:
The exact form of at least one protein or probe is not confirmed. Results from cells or extracts need not show a direct contact. For part of these data: At least one verdict was read from the data and is not stated in words by the source. Where a protein sequence is shown, tags need not be part of it.

Key:
[1] = molecular target: T1, Znf9 (native, cell extract) (Cryptococcus neoformans (H99)) (UniProt J9VQH8); experiment: pull-down, LC-MS/MS; conditions: H99 lysate, 3 mM MgCl2, heparin, tRNA; protein in an extract; label: 5'-biotin
T1 sequence (looked up, limits assumed): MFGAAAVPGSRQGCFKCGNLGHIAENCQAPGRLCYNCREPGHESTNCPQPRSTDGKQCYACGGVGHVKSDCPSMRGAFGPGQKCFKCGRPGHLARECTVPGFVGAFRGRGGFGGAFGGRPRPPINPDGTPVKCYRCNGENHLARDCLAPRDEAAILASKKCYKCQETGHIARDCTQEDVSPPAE

[2] = molecular target: T2, Gis2 (native, cell extract) (Cryptococcus neoformans (H99)) (UniProt J9VQ17); experiment: UV-cross-linked EMSA; conditions: znf9Δ extract, band lost in gis2Δ znf9Δ; EMSA: 15 mM HEPES pH 7.4, 40 mM KCl, 5 mM MgCl2, 5% glycerol, 0.5 pmol probe in 20 µl, room temperature 20 min, then UV cross-link on ice 10 min; protein in an extract; label: 5'-TYE705
T2 sequence (looked up, limits assumed): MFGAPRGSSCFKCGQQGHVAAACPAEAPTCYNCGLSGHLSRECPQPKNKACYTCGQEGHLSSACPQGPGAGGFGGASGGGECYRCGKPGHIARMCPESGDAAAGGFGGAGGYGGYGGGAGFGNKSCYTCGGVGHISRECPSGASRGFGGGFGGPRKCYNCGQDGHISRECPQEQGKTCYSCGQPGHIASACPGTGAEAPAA

[3] = molecular target: T1, Znf9 (native, cell extract) (Cryptococcus neoformans (H99)); experiment: UV-cross-linked EMSA; conditions: gis2Δ extract, band lost in gis2Δ znf9Δ; EMSA: 15 mM HEPES pH 7.4, 40 mM KCl, 5 mM MgCl2, 5% glycerol, 0.5 pmol probe in 20 µl, room temperature 20 min, then UV cross-link on ice 10 min; protein in an extract; label: 5'-TYE705

“UGCAGUGGAGUUGGAGUGGGGAUGGGAUGUUGGGCAGUGGGCCCGUGGAU [Biotin-RPL2-3'UTR]”: binds [1].
“UGCAGUGGAGUUGGAGUGGGGAUGGGAUGUUGGGCAGUGGGCCCGUGGAU [TYE705-RPL2-3'UTR]”: binds [2]; binds [3].
